From doi:10.1101/2025.02.07.636106
These are yes or no findings as the source states them, for the method shown. For some of these results: In cells and extracts the contact can be indirect. Some entries that bind do so weakly or less than the wild type. One block for each binder: values may come before it.

The chains behind the UniProt entries cited, without tags or fusion partners.
UniProt O43747: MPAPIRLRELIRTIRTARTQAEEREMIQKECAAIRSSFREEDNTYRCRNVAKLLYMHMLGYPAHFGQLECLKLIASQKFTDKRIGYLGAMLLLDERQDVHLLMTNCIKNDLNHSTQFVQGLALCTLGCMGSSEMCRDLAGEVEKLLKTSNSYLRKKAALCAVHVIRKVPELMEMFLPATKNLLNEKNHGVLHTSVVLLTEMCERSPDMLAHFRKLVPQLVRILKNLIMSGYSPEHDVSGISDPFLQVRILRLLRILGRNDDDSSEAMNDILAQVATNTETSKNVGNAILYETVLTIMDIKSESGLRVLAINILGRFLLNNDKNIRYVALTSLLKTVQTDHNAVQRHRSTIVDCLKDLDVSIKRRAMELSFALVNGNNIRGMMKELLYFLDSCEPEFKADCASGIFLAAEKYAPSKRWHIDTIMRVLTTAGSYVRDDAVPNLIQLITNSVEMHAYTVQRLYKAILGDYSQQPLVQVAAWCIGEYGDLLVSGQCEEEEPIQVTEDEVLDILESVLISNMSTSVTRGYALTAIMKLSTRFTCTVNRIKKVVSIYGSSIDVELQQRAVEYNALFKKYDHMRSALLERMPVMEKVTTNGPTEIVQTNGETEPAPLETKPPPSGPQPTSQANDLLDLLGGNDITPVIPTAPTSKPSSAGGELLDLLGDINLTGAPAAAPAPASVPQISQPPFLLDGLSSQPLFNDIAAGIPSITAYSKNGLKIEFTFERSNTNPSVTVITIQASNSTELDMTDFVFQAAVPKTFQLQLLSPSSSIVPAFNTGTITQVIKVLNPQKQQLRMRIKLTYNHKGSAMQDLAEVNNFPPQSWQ

Experiments:
[1] = molecular target: T1, FLOT2 (human (endogenous in HEK293)) (UniProt Q14254); assay: cross-linking; XL-MS: intact early endosomes purified by Endo-IP (FLAG-EEA1, HEK293EL, eluted without detergent) in KPBS, 1 mM DSSO, room temperature, 40 min; XlinkX, 5% FDR
T1 sequence: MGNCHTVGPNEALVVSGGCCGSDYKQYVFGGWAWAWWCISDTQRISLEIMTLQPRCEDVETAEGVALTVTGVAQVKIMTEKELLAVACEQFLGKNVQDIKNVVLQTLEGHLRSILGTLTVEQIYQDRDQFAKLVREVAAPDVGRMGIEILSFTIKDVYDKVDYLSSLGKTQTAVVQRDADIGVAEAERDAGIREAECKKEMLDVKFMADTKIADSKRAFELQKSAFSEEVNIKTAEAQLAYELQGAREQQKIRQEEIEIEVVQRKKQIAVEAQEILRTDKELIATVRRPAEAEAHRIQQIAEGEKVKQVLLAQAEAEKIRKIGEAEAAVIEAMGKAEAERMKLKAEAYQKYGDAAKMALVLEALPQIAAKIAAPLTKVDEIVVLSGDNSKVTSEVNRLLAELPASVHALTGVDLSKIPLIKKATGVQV

[2] = molecular target: T2, CLCN7 (human (endogenous in HEK293)) (UniProt P51798); assay: as above
T2 sequence: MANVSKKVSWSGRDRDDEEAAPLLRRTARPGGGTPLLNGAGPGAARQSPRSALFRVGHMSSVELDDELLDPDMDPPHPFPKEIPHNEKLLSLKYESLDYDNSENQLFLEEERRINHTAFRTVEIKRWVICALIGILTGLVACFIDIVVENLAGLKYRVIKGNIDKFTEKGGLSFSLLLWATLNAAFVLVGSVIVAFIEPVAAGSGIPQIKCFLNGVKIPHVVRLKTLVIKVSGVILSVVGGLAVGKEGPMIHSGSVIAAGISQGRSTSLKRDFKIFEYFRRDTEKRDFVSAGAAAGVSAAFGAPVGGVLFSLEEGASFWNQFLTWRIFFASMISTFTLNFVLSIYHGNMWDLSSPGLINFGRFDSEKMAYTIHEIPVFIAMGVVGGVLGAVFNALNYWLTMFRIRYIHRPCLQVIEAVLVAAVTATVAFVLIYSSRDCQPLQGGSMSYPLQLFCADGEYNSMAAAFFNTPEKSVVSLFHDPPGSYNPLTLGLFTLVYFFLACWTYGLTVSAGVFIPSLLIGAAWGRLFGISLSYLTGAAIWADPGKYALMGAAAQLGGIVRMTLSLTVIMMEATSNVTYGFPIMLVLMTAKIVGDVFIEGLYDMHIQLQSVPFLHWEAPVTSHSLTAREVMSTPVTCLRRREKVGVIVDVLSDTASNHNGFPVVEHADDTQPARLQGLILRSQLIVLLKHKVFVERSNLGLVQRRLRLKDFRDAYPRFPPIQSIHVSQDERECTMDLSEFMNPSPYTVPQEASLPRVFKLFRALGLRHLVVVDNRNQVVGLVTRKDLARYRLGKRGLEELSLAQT

[3] = molecular target: T3, RMC1 (human (endogenous in HEK293)) (UniProt Q96DM3); assay: as above
T3 sequence: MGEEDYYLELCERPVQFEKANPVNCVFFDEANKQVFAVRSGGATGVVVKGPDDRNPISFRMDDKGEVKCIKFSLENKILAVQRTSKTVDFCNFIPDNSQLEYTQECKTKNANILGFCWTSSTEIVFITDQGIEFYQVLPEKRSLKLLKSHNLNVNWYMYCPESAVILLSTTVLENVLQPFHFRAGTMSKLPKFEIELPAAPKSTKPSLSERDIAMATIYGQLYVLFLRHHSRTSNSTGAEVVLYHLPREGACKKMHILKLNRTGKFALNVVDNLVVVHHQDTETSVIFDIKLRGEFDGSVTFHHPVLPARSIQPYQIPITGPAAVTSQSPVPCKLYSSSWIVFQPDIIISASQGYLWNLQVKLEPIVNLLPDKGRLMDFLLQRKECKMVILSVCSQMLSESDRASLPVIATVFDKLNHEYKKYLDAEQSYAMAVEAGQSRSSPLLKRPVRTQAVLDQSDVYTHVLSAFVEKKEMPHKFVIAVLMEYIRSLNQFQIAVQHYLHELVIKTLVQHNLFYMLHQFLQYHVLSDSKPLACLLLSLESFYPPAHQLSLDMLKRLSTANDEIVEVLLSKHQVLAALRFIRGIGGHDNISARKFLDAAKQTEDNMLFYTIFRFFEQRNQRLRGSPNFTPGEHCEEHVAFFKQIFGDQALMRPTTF

[4] = molecular target: T4, ATP11B (human (endogenous in HEK293 and in H9-derived iNeurons)) (UniProt Q9Y2G3); assay: native gel or EMSA; BN-MS: endosomal pellets (Endo-IP, HEK293EL) extracted with 0.5% DDM in KPBS, 4-16% NativePAGE at 4°C, 48 slices, DIA-MS; co-migration of elution profiles
T4 sequence: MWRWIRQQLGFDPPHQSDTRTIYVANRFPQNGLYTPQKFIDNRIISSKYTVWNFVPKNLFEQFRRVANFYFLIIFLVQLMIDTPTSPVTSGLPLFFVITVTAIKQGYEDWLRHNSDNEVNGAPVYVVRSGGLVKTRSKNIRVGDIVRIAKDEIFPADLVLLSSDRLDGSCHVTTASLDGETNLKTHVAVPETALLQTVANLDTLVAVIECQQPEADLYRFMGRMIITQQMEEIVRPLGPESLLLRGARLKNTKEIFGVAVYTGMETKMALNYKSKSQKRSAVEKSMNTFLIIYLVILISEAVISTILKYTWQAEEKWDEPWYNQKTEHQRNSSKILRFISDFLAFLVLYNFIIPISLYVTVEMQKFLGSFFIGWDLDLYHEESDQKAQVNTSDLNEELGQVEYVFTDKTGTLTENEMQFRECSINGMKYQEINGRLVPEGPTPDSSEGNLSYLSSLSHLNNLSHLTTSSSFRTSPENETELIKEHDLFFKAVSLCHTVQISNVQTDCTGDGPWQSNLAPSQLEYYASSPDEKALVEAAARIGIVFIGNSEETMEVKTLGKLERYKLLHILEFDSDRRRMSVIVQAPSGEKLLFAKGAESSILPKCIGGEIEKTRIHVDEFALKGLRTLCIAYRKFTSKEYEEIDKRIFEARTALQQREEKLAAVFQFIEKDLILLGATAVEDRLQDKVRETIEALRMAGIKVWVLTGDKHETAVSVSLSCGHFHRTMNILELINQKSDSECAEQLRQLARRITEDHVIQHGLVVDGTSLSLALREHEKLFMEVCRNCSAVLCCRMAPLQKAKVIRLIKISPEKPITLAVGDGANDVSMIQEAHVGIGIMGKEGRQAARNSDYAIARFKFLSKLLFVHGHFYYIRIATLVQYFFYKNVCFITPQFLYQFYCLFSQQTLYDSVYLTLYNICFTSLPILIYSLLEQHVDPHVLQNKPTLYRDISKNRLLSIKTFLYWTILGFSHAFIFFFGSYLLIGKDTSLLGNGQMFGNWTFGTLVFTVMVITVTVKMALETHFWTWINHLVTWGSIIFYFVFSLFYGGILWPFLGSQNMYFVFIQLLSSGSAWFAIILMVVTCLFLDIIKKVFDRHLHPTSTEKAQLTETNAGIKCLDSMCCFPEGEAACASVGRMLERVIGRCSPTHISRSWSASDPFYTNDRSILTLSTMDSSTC

[5] = molecular target: T5, TMEM30A (human (endogenous in HEK293 and in H9-derived iNeurons)) (UniProt Q9NV96); assay: as above
T5 sequence: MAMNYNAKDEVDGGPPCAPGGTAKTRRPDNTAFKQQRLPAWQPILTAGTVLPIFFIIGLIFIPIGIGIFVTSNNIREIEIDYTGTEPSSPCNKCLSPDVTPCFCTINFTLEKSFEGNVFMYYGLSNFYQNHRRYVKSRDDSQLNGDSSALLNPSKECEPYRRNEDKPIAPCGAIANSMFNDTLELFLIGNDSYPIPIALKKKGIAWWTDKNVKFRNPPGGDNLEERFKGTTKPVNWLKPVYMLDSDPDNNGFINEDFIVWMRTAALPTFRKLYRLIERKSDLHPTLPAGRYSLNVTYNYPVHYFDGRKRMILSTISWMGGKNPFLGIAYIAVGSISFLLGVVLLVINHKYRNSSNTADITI

[6] = molecular target: T4, ATP11B (human (endogenous in HEK293 and in H9-derived iNeurons)); assay: cross-linking; XL-MS: intact early endosomes purified by Endo-IP (FLAG-EEA1, HEK293EL, eluted without detergent) in KPBS, 1 mM DSSO, room temperature, 40 min; XlinkX, 5% FDR
[7] = molecular target: AP1G1 (human (endogenous in HEK293)) (UniProt O43747); assay: as above

B1: FLOT1 (protein, UniProt O75955 1-427)
chain: MFFTCGPNEAMVVSGFCRSPPVMVAGGRVFVLPCIQQIQRISLNTLTLNVKSEKVYTRHGVPISVTGIAQVKIQGQNKEMLAAACQMFLGKTEAEIAHIALETLEGHQRAIMAHMTVEEIYKDRQKFSEQVFKVASSDLVNMGISVVSYTLKDIHDDQDYLHSLGKARTAQVQKDARIGEAEAKRDAGIREAKAKQEKVSAQYLSEIEMAKAQRDYELKKAAYDIEVNTRRAQADLAYQLQVAKTKQQIEEQRVQVQVVERAQQVAVQEQEIARREKELEARVRKPAEAERYKLERLAEAEKSQLIMQAEAEAASVRMRGEAEAFAIGARARAEAEQMAKKAEAFQLYQEAAQLDMLLEKLPQVAEEISGPLTSANKITLVSSGSGTMGAAKVTGEVLDILTRLPESVERLTGVSISQVNHKPLRTA
- binding [1]: binds

B3: CLCN7 (protein, UniProt P51798 1-805)
chain: MANVSKKVSWSGRDRDDEEAAPLLRRTARPGGGTPLLNGAGPGAARQSPRSALFRVGHMSSVELDDELLDPDMDPPHPFPKEIPHNEKLLSLKYESLDYDNSENQLFLEEERRINHTAFRTVEIKRWVICALIGILTGLVACFIDIVVENLAGLKYRVIKGNIDKFTEKGGLSFSLLLWATLNAAFVLVGSVIVAFIEPVAAGSGIPQIKCFLNGVKIPHVVRLKTLVIKVSGVILSVVGGLAVGKEGPMIHSGSVIAAGISQGRSTSLKRDFKIFEYFRRDTEKRDFVSAGAAAGVSAAFGAPVGGVLFSLEEGASFWNQFLTWRIFFASMISTFTLNFVLSIYHGNMWDLSSPGLINFGRFDSEKMAYTIHEIPVFIAMGVVGGVLGAVFNALNYWLTMFRIRYIHRPCLQVIEAVLVAAVTATVAFVLIYSSRDCQPLQGGSMSYPLQLFCADGEYNSMAAAFFNTPEKSVVSLFHDPPGSYNPLTLGLFTLVYFFLACWTYGLTVSAGVFIPSLLIGAAWGRLFGISLSYLTGAAIWADPGKYALMGAAAQLGGIVRMTLSLTVIMMEATSNVTYGFPIMLVLMTAKIVGDVFIEGLYDMHIQLQSVPFLHWEAPVTSHSLTAREVMSTPVTCLRRREKVGVIVDVLSDTASNHNGFPVVEHADDTQPARLQGLILRSQLIVLLKHKVFVERSNLGLVQRRLRLKDFRDAYPRFPPIQSIHVSQDERECTMDLSEFMNPSPYTVPQEASLPRVFKLFRALGLRHLVVVDNRNQVVGLVTRKDLARYRLGKRGLEELSLAQT
- binding [3]: binds

B5: AP1S2 (protein, UniProt P56377 1-157)
chain: MQFMLLFSRQGKLRLQKWYVPLSDKEKKKITRELVQTVLARKPKMCSFLEWRDLKIVYKRYASLYFCCAIEDQDNELITLEIIHRYVELLDKYFGSVCELDIIFNFEKAYFILDEFLLGGEVQETSKKNVLKAIEQADLLQEEAETPRSVLEEIGLT
- binding [7]: binds

Further lines, results first:

- binding [2]: binds
B2: OSTM1 (protein, UniProt Q86WC4 32-334)
chain: ALPFGSSPHRVFHDLLSEQQLLEVEDLSLSLLQGGGLGPLSLPPDLPDLDPECRELLLDFANSSAELTGCLVRSARPVRLCQTCYPLFQQVVSKMDNISRAAGNTSESQSCARSLLMADRMQIVVILSEFFNTTWQEANCANCLTNNSEELSNSTVYFLNLFNHTLTCFEHNLQGNAHSLLQTKNYSEVCKNCREAYKTLSSLYSEMQKMNELENKAEPGTHLCIDVEDAMNITRKLWSRTFNCSVPCSDTVPVIAVSVFILFLPVVFYLSSFLHSEQKKRKLILPKRLKSSTSFANIQENSN

- binding [4]: binds
- binding [5]: binds
- binding [6]: binds
B4: TMEM230 (protein, UniProt Q96A57 1-120)
chain: MMPSRTNLATGIPSSKVKYSRLSSTDDGYIDLQFKKTPPKIPYKAIALATVLFLIGAFLIIIGSLLLSGYISKGGADRAVPVLIIGILVFLPGFYHLRIAYYASKGYRGYSYDDIPDFDD
